Experimental data published in PubChem BioAssay AID2685 (National Center for Advancing Translational Sciences (NCATS), 2010).
The other results are listed elsewhere or left out. These are further read-outs of the screen, such as a control signal, another cell line or another target. No call is given for them. Most of these compounds were active or inconclusive in the main read-out, so they are no random draw. Words in brackets tell the shape of the fitted curve; partial curves, single points and poor fits give uncertain potencies.

Experiment: qHTS Assay for Lipid Storage Modulators in Drosophila S3 Cells;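 on cell number change: cells counted by Cell Tracker Red CMTPX staining in the red channel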
Details: BODIPY lipid droplet fluorescence, 18-24 h; for cell number change: measured here: cell count max response, cells fed with added oleic acid
Procedure, shortened: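 Laser-scanning cytometry quantifies lipid droplet accumulation (500–530 nm total intensity; droplet/cell object ratio) in oleic acid-fed (400 uM added) Drosophila S3 cells treated with a concentration series. 20 uM Triacsin C defined 100% inhibition.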

[1] = measured here: lipid fluorescence (Fed channel) AC50, cells fed with added oleic acid
[2] = measured here: cell number channel AC50, cells fed with added oleic acid

Structure (SMILES)	cell number change [%]	AC50 [1]	AC50 [2]
CC(=O)Nc1nnc(SCC(=O)Nc2ccc3c(c2)OCCO3)s1	19.5		
Cc1cc(C)cc(Nc2nc3ccc(C)cc3n3cnnc23)c1	-24.6	32.6 µM [falling, single point]	
Cc1ccc(NC(=O)c2ccccc2OCC(=O)Nc2ccccc2F)cc1S(=O)(=O)N(C)C	9.55	0.731 µM [rising, single point]	
COC(=O)c1c(NC(=O)COC(=O)c2ccccc2O)sc2c1CCCCC2	175	5.8 µM [rising, full curve]	5.8 µM [rising, full curve]
C#CCOCCOCCOCCNc1nc(N2CCN(C(=O)CCCCCCCCCCNC(=O)Cn3cc(C[C@@H](C)O)nn3)CC2)nc(N2CCN(C(=O)CCCCCCCCCCNC(=O)[C@@H](CCC(=O)O)n3cc(CCCCCN)nn3)CC2)n1	-14.9	6.51 µM [falling, single point]	
O=C(CSc1n[nH]c(-c2cccnc2)n1)Nc1cccc(Cl)c1	-9.52	6.51 µM [rising, single point]	
CCN(CC)CCNC(=O)c1ccc(NC(=O)C2CC(=O)N(c3ccc4c(c3)OCCO4)C2)cc1 (centres undefined)	-18.9		
COc1ccc(OC)c(NC(=O)C2CCCN2C(=O)NC2CCCCC2)c1 (centres undefined)	6.72		
Cc1ccccc1-c1nnc(SC(C)C(=O)NC2CCCC2)o1 (centres undefined)	12.8	0.13 µM [falling, full curve, poor fit]	
O=S(=O)(c1ccccc1Cl)N1CCCC1c1nc(-c2cccc(Cl)c2)no1 (centres undefined)			6.51 µM [falling, single point]
COc1ccc2ccccc2c1CN1CCN(C)CC1	3.37	6.51 µM [rising, single point]	
CCn1nc(C)cc1C(=O)N1CCCC(Nc2ccc(C(C)C)cc2)C1 (centres undefined)		0.651 µM [falling, full curve]	
Nc1cc(S(=O)(=O)Nc2cc(Cl)ccc2Cl)ccc1N1CCCC1	6.43	18.4 µM [rising, single point]	
O=C(Cn1cncn1)c1ccc(F)cc1F	28.7	3.66 µM [falling, single point]	
O=C(Cn1c(=O)cnc2ccccc21)NNC(=O)c1ccccc1Cl	3.49	23.1 µM [rising, single point]	
CC(=O)c1nn(-c2cccc(Br)c2)cc1C(=O)c1cccc2ccccc12	22.7	0.651 µM [rising, single point]	0.651 µM [rising, partial curve]
Cc1nccc(-c2ccc(-n3cnc4ccccc43)cc2)n1	36.5	2.31 µM [rising, partial curve]	0.58 µM [rising, full curve]
CC(C)N(C)S(=O)(=O)c1ccc(Cl)c(C(=O)O)c1	63.1		
COc1ccc(-c2c(-c3cc(OC)cc(OC)c3)n(C)c3ccc(Br)cc23)cc1	17.6	0.164 µM [rising, full curve, poor fit]	
CC(=O)c1ccc(NC(=O)CN2CCN(S(=O)(=O)c3ccc4ccccc4c3)CC2)cc1	8.77	0.00517 µM [rising, full curve, poor fit]	
Cc1ccccc1OCC(=O)OCC(=O)Nc1cc(S(=O)(=O)N2CCCCC2)ccc1Cl	4.66		6.51 µM [falling, single point]
Cn1cccc1Cc1nnc(SCC(=O)NCc2ccccc2)n1-c1ccc(F)cc1	-14.1	6.51 µM [rising, single point]	
CCOc1cc(C(=O)N2CCCN(C)CC2)cc(OCC)c1OCC	1.35		7.31 µM [falling, single point]
CCOc1ccc(CCNC(=O)COC(=O)c2c(C)nn(-c3ccccc3)c2C)cc1OCC	-33	7.31 µM [falling, partial curve]	14.6 µM [falling, single point]
O=C(Nc1cccc2cccnc12)c1cccnc1	0.219	14.6 µM [rising, partial curve, poor fit]	
Cc1c(C(=O)Nc2ccccc2)cn2c(nc3ccccc32)c1C#N	3.34	29.1 µM [rising, single point]	
CC1CN(S(=O)(=O)c2ccc(C(=O)NN3CCN(C)CC3)cc2)CC(C)O1 (centres undefined)		0.116 µM [falling, full curve, poor fit]	6.51 µM [rising, single point]
CCN(CC)C(=O)Cn1cc(S(=O)(=O)CC(=O)Nc2ccc(C(N)=O)cc2)c2ccccc21	22.8	29.1 µM [rising, single point]	

Structure (SMILES)	cell number change [%]	AC50 [1]	AC50 [2]
COc1cc(/C=N/NC(=O)c2cc(C3CC3)[nH]n2)cc(OC)c1OC	-6.42	29.1 µM [falling, single point]	
CCC(C(=O)NC(C)(C)C)N(C(=O)Cn1nnc(-c2ccccc2F)n1)c1cccc2c1CCCC2 (centres undefined)	137	25.9 µM [rising, partial curve]	
Cc1ccc(C(=O)NCN2CCN(c3ccc(F)cc3)CC2)cc1	22.7	0.00461 µM [falling, full curve, poor fit]	
CCOC(=O)C1CCCN(S(=O)(=O)c2ccc(S(=O)(=O)N(CC)CC)cc2)C1 (centres undefined)	-60.5	5.8 µM [falling, partial curve]	6.51 µM [falling, partial curve]
COc1ccc(NC(=S)N2CCCC2)cc1	-57.1		20.6 µM [falling, single point]
O=C(O)c1ccccc1C(=O)Nc1nc(-c2ccccc2)cs1	15.2	23.1 µM [rising, single point]	
C#CCOCCOCCOCCNc1nc(N2CCN(C(=O)CCCCCCCCCCNC(=O)Cn3cc(CCCCCN)nn3)CC2)nc(N2CCN(C(=O)CCCCCCCCCCNC(=O)Cn3cc(CCCCCN)nn3)CC2)n1		6.51 µM [rising, partial curve, poor fit]	
Cc1nnc(SCC(=O)N2CCN(S(=O)(=O)c3ccccc3)CC2)n1Cc1ccccc1	-0.204	0.116 µM [falling, single point]	
NC(=O)c1c(NC(=O)c2ccccc2)sc2c1CCN(Cc1ccccc1)C2	136	29.1 µM [rising, single point]	29.1 µM [rising, single point]
CC(O)[C@@]1(O)CC[C@H]2[C@@H]3CC[C@H]4C[C@@H](O)CC[C@]4(C)C3=CC[C@@]21C (some centres undefined)	-18.7	14.6 µM [rising, partial curve, poor fit]	
COc1cccc(CC(NC(C)=O)C(=O)NC2CCN(c3nc(C)cc(C)c3C#N)CC2)c1OC (centres undefined)		0.58 µM [rising, single point]	
Cc1cc(C)cc(Oc2ccccc2/C=N\O)c1	-46.1	29.1 µM [falling, single point]	29.1 µM [falling, single point]
COc1cc(-c2csc(C)n2)ccc1O	14.3	3.26 µM [rising, partial curve]	
Cc1cc(C)c(NC(=O)C2CCCN2CCOC(=O)c2cccc([N+](=O)[O-])c2)c(C)c1 (centres undefined)		2.91 µM [rising, single point]	
Oc1ccc(C[C@@H]2CNCCN2CC2(c3ccccc3)CC2)cc1	22.8	0.0058 µM [rising, full curve, poor fit]	
Cc1ccc2[nH]cc(S(=O)(=O)c3ccc(C(C)C)cc3)c(=O)c2c1		6.51 µM [rising, single point]	
COC(=O)N/N=C\c1ccc(OC/C=C/c2ccccc2)c(OC)c1	15.1	29.1 µM [rising, single point]	
CC[n+]1c(/C=C2/C=C(C)CC(C)(C)C2)sc2ccc(OC)cc21	-34.2	18.4 µM [falling, single point]	29.1 µM [falling, single point]
Cc1ccccc1-c1nn(-c2ccc(F)cc2F)cc1CNCCN(C)C	-12.6	1.64 µM [falling, partial curve, poor fit]	
C/C(=N\N=C(N)N)c1cccc([N+](=O)[O-])c1	-19.6	0.291 µM [falling, full curve, poor fit]	
Cc1nc(S(=O)(=O)Nc2ccc3c(c2)OCCO3)cn1C	0.966		
Cc1ccccc1OCC(=O)Nc1ccccc1C(=O)NC1CC1		0.517 µM [rising, partial curve, poor fit]	0.517 µM [rising, full curve, poor fit]
COc1ccccc1OCc1nnc(SCC(=O)Nc2ccc(C)cc2)n1C	0.13	0.00461 µM [rising, full curve, poor fit]	
O=C1COc2cc(S(=O)(=O)CCC(=O)N3CCCCC3)c(Cl)cc2N1	10.1	20.6 µM [rising, partial curve, poor fit]	
COc1ccc2ccc(OCC(=O)N3c4ccccc4NC(=O)CC3C)cc2c1 (centres undefined)	32.9	14.6 µM [rising, partial curve, poor fit]	9.2 µM [rising, partial curve, poor fit]
COC(=O)C1=CN(Cc2ccc(OC)c(OC)c2)C=C(C(=O)OC)C1c1ccccc1F	10.1	0.82 µM [rising, full curve, poor fit]	
Cc1sc2nc(C3CC3)nc(NCCNS(=O)(=O)c3ccccc3)c2c1C	-34	20.6 µM [falling, partial curve]	16.4 µM [falling, single point]

Compounds from the list above with bromine (2):
Structure (SMILES)	cell number change [%]	AC50 [1]	AC50 [2]
CC(=O)c1nn(-c2cccc(Br)c2)cc1C(=O)c1cccc2ccccc12	22.7	0.651 µM [rising, single point]	0.651 µM [rising, partial curve]
COc1ccc(-c2c(-c3cc(OC)cc(OC)c3)n(C)c3ccc(Br)cc23)cc1	17.6	0.164 µM [rising, full curve, poor fit]	
